These are yes or no findings as the source states them, for the method shown. Some binding calls cover weakened binding; strength is not graded here.
B1: T. thermophilus RNAP alpha subunit (protein, UniProt Q5SHR6 1-315)
chain: MLDSKLKAPVFTVRTQGREYGEFVLEPLERGFGVTLGNPLRRILLSSIPGTAVTSVYIEDVLHEFSTIPGVKEDVVEIILNLKELVVRFLNPSLQTVTLLLKAEGPKEVKARDFLPVADVEIMNPDLHIATLEEGGRLNMEVRVDRGVGYVPAEKHGIKDRINAIPVDAVFSPVRRVAFQVEDTRLGQRTDLDKLTLRIWTDGSVTPLEALNQAVEILREHLTYFSNPQAAAVAAPEEAKEPEAPPEQEEELDLPLEELGLSTRVLHSLKEEGIESVRALLALNLKDLKNIPGIGERSLEEIKEALEKKGFTLKE
B2: T. thermophilus RNAP omega subunit (protein, UniProt Q8RQE7 1-99)
chain: MAEPGIDKLFGMVDSKYRLTVVVAKRAQQLLRHGFKNTVLEPEERPKMQTLEGLFDDPNAVTWAMKELLTGRLVFGENLVPEDRLQKEMERLYPVEREE

What follows are molecules tested against T. thermophilus RNAP beta' subunit with a C-terminal 10xHis tag (T. thermophilus HB8) (UniProt Q8RQE8) (assay: co-purification (Ni-NTA affinity, SEC), SDS-PAGE; RNAP captured from T. thermophilus HB8rpoC::10H lysate by the C-terminal 10xHis tag on β´ (500 mM NaCl), then SEC on Superdex 200 Increase).

binding, binds:
T. thermophilus RNAP beta subunit (from UniProt Q8RQE9 1-1119)
B1
B2
